Data from the supplement of paper PMC10849652.
This is one part of the list.

Protein sequences, listed by entry. Tags and fused reporters are not part of them. Lines headed by an entry give the natural chain unless they say otherwise; changes in a name come on top.
UniProt Q13303: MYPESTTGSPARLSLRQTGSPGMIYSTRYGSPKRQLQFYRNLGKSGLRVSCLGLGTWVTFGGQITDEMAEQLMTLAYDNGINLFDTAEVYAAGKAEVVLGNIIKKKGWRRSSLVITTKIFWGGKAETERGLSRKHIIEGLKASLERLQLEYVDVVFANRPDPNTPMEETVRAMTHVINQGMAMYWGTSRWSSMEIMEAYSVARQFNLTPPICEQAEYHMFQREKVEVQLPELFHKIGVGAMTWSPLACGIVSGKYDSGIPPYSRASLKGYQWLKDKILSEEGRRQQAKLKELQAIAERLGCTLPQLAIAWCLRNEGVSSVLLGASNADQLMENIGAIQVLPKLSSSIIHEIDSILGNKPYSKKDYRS
UniProt Q14624: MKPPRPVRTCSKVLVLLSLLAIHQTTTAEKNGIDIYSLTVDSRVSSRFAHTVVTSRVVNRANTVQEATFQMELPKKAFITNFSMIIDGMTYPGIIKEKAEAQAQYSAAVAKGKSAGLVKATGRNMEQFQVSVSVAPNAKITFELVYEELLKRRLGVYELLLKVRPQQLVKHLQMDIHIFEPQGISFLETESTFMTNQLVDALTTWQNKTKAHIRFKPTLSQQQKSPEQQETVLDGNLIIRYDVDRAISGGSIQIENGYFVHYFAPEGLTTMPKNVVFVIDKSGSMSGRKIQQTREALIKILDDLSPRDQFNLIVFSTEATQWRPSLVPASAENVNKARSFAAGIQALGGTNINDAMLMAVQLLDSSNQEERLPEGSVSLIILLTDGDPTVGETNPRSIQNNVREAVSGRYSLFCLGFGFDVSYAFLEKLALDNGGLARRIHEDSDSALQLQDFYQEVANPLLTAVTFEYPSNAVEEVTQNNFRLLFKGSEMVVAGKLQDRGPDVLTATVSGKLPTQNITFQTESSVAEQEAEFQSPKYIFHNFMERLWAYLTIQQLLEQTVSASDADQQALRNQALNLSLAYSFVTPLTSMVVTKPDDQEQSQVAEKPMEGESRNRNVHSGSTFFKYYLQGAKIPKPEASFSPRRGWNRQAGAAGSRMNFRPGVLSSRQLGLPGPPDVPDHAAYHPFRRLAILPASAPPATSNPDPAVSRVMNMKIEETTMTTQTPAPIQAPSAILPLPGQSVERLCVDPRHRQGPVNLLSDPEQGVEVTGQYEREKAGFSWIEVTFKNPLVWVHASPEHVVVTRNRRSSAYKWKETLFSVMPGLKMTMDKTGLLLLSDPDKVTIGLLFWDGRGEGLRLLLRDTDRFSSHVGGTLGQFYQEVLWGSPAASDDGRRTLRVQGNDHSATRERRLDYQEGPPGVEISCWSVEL
UniProt Q75QN2, whole entry, looked up: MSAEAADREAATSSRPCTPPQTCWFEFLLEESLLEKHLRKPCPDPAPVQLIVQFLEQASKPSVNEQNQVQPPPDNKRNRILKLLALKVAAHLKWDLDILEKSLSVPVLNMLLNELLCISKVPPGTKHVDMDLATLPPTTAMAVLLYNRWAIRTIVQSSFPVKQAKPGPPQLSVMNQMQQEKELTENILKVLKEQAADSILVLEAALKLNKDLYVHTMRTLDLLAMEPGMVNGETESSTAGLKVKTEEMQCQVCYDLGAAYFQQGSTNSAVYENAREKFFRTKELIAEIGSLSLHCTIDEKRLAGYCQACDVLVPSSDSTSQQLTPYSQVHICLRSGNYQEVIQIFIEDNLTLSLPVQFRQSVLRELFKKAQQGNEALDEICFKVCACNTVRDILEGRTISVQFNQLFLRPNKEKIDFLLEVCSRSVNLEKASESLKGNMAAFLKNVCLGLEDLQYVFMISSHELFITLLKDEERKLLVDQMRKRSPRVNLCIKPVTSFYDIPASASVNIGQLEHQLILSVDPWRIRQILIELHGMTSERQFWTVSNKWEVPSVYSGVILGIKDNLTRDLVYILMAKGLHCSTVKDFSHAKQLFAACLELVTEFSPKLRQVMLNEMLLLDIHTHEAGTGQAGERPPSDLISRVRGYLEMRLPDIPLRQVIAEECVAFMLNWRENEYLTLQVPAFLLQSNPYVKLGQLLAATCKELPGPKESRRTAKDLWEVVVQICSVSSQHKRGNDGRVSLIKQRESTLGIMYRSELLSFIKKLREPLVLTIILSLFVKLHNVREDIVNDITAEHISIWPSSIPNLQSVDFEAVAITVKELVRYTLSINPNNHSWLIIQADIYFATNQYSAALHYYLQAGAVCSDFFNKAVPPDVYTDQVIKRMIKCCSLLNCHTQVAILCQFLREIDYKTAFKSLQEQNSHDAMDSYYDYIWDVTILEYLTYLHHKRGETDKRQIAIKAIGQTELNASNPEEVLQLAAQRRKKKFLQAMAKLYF
UniProt Q9ULR0: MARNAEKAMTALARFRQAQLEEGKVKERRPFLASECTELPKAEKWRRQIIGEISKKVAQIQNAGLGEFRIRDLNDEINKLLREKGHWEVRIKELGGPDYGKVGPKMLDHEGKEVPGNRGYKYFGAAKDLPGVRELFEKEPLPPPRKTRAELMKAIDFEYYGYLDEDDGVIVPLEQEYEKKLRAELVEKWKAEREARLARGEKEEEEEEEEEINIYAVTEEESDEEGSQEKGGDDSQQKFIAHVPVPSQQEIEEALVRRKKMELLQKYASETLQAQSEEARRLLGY
UniProt Q9UK76: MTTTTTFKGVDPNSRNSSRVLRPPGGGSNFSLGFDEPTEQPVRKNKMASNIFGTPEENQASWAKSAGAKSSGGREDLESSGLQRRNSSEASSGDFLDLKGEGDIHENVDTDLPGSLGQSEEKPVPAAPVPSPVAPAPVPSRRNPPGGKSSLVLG
UniProt Q8NB78: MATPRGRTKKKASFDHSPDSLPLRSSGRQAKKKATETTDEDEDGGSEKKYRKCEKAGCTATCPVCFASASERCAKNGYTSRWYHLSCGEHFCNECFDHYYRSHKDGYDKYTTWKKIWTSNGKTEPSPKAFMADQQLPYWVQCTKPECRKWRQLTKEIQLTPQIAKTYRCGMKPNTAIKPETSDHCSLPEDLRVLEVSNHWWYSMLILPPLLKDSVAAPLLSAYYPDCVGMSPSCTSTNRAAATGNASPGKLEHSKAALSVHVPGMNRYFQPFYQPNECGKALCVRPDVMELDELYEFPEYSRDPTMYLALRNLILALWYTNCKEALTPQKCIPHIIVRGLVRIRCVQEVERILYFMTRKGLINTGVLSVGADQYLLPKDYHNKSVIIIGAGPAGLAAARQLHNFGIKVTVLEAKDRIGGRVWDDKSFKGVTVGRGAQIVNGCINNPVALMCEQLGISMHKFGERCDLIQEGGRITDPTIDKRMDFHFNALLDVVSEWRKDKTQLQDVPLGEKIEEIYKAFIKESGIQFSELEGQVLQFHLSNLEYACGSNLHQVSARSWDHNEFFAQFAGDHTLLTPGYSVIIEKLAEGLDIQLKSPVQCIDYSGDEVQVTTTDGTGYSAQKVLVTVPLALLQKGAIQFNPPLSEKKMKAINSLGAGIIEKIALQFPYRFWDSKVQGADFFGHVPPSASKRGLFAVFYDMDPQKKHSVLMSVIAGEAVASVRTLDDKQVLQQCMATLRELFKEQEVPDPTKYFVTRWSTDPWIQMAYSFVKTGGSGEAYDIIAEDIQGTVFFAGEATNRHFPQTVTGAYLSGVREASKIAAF
UniProt P24390: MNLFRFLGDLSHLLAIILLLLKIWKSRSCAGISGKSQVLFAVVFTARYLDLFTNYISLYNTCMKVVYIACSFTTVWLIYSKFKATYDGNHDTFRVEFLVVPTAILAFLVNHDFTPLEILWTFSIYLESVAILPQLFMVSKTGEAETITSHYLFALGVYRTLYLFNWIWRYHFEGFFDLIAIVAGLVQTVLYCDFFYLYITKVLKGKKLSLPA
UniProt P53990, whole entry, looked up: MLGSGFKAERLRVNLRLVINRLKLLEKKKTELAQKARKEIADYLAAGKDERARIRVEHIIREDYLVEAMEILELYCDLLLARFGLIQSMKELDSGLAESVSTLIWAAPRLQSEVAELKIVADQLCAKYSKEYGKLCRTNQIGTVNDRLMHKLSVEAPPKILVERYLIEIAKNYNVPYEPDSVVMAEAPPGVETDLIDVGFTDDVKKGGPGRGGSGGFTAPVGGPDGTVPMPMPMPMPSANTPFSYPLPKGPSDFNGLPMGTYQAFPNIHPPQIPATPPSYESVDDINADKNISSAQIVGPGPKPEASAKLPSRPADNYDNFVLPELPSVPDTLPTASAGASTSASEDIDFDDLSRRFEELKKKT
UniProt Q8WYB5, whole entry, looked up: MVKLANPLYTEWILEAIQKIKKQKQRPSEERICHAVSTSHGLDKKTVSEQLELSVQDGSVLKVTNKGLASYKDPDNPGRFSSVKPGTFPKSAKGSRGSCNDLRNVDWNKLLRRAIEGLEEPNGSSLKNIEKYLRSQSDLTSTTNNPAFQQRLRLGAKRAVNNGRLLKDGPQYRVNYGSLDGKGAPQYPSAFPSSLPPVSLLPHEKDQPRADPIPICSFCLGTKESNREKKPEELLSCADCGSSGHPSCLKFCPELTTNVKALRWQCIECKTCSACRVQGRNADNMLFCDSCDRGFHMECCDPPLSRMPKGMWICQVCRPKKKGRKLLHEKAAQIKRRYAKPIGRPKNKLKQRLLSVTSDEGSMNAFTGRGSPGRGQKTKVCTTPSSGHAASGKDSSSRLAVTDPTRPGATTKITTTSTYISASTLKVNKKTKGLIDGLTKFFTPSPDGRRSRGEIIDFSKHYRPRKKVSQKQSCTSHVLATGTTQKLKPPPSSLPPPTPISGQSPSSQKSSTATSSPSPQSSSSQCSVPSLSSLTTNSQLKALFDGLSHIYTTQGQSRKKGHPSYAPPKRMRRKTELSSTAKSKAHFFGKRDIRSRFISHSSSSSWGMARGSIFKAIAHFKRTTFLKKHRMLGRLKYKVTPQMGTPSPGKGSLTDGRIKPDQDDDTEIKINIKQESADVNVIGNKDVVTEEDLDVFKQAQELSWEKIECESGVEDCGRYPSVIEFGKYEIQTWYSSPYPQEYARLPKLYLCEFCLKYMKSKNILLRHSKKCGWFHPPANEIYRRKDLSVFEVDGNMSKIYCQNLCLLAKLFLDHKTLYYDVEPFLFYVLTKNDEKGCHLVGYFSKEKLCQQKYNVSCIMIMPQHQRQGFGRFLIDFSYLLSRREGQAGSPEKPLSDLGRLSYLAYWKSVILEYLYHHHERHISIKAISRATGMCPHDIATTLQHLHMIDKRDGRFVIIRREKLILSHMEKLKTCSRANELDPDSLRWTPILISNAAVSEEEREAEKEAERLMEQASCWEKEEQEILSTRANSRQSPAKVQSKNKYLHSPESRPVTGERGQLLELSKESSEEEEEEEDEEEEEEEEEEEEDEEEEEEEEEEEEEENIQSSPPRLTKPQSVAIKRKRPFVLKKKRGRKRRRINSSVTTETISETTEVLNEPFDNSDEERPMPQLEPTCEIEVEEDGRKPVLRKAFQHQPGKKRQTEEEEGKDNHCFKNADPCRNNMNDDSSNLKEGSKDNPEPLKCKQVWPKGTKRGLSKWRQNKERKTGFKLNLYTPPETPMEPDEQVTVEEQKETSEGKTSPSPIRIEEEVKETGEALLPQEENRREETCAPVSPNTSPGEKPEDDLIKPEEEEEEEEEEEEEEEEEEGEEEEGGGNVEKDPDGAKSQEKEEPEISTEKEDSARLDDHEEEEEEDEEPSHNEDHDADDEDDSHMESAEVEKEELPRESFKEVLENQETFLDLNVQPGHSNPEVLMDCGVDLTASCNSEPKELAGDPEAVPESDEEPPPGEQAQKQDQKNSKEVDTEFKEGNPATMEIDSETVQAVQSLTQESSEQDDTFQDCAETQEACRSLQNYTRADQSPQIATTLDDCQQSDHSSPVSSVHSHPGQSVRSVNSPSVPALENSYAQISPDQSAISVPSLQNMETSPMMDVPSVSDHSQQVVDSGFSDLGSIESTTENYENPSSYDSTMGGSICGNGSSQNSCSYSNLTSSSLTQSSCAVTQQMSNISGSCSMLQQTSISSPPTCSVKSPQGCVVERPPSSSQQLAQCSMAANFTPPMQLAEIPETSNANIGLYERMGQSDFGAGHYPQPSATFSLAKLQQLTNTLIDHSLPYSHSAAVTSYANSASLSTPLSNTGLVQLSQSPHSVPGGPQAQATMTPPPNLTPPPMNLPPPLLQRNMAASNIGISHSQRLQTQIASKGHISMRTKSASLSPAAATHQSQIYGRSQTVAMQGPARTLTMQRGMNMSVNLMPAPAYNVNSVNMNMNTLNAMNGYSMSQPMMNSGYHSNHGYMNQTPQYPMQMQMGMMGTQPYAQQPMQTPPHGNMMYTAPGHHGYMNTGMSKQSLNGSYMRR
UniProt P17535: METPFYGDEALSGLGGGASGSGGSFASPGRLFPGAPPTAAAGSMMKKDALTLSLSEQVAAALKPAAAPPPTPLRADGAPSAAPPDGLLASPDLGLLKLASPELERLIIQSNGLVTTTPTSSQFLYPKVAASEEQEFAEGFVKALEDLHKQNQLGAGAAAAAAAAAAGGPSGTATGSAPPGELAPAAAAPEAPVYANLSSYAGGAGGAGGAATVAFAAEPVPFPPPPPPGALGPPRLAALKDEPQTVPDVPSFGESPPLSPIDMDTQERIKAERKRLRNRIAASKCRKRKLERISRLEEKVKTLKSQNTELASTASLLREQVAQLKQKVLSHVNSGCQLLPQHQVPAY

Columns and labels:
Test in all cases: log2 fold change, soluble protein after heating vs DMSO (PISA); higher = thermal stabilisation; K562 lysate, 10 uM; active = over 0.2 and 3.5 SD of the protein, either way, in both replicates (recomputed)
erlotinib = compound: C#Cc1cccc(Nc2ncnc3cc(OCCOC)c(OCCOC)cc23)c1 [erlotinib]
How it was run: (§1)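 To prepare the extract, K562 pellets were dounce-homogenised in PBS pH 7.4 with 1 mM MgCl2, giving crude material at 1 mg/mL protein. This was treated with 10 μM compound for 30 min, then heated in aliquots for 3 min over 48°C-58°C before pooling and addition of NP-40 to 0.5% at 4°C. Centrifugation at 21,000xg for 90 min left soluble protein in the supernatant, which TMTpro 16plex LC-MS/MS quantified with equalised channel sums. Results are log-two fold changes in thermal stability compared with solvent controls, from duplicates.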

[1] = compound: C/C(=N\NC(=O)C1=CC(=CC=C1)S(=O)(=O)N2CCOCC2)/C3=C(C=CC(=C3)Cl)O
How it was run: as §1

[2] = compound: C1=CC(=CC=C1C2=NC3=C(N2)C=C(C=C3)C(=O)N)OC4=CC=C(C=C4)Cl
How it was run: as §1

[3] = compound: C1=CC2=C(C=CC(=C2)/C=C\3/C(=O)NC(=NCC4=CC=CS4)S3)N=C1
How it was run: as §1

[4] = compound: C1=CC2=NC=CN=C2C=C1/C=C/3\C(=O)NC(=O)S3
How it was run: as §1

[5] = compound: C1=CC=C(C=C1)C2=NC(=C(N2)C3=CC=NC=C3)C4=CC(=C(C=C4)Cl)O
How it was run: as §1

[6] = compound: C1=CC=C2C(=C1)C3=NNC4=CC=CC(=C43)C2=O
How it was run: as §1

[7] = compound: C1CCN(C1)C(=O)NC2=CC=CC(=C2)NC3=NC=C(C(=N3)NCCC4=CN=CN4)Br
How it was run: as §1

[8] = compound: C1CN(CCC1(CC2=CC=C(C=C2)Cl)N)C3=NC=NC4=C3C=CN4
How it was run: as §1

IRAK-1-4 Inhibitor I = compound: C1COCCN1CCN2C3=CC=CC=C3N=C2NC(=O)C4=CC(=CC=C4)[N+](=O)[O-] [IRAK-1-4 Inhibitor I]
How it was run: as §1

Measured: log2 fold change

KCNAB2 (UniProt Q13303)
inactive: erlotinib -0.064 | [1] -0.062 | [2] -0.007 | [3] 0.084 | [4] 0.003 | [5] -0.023 | [6] -0.011 | [7] -0.021 | [8] -0.012 | IRAK-1-4 Inhibitor I 0.003

ITIH4 (UniProt Q14624)
inactive: erlotinib 0.048 | [1] 0.099 | [2] 0.036 | [3] 0.028 | [4] -0.041 | [5] 0.053 | [6] 0.035 | [7] -0.02 | [8] 0.034 | IRAK-1-4 Inhibitor I 0.036

INTS4 (UniProt Q96HW7)
inactive: erlotinib -0.026 | [1] -0.061 | [2] 0.008 | [3] 0.015 | [4] -0.01 | [5] -0.013 | [6] -0.014 | [7] -0.078 | [8] 0.007 | IRAK-1-4 Inhibitor I 0.111

Two neighbouring entries out of the list so far, for reference:
ITIH4 (UniProt Q14624)
inactive: erlotinib 0.048 | [1] 0.099 | [2] 0.036 | [3] 0.028 | [4] -0.041 | [5] 0.053 | [6] 0.035 | [7] -0.02 | [8] 0.034 | IRAK-1-4 Inhibitor I 0.036

INTS4 (UniProt Q96HW7)
inactive: erlotinib -0.026 | [1] -0.061 | [2] 0.008 | [3] 0.015 | [4] -0.01 | [5] -0.013 | [6] -0.014 | [7] -0.078 | [8] 0.007 | IRAK-1-4 Inhibitor I 0.111

Following part:

INTS8 (UniProt Q75QN2)
inactive: erlotinib -0.002 | [1] 0.043 | [2] -0.051 | [3] 0.02 | [4] -0.048 | [5] 0.037 | [6] -0.004 | [7] 0.066 | [8] -0.035 | IRAK-1-4 Inhibitor I 0.015

KBTBD8 (UniProt Q8NFY9)
inactive: erlotinib 0.076 | [1] -0.024 | [2] 0.007 | [3] 0 | [4] -0.18 | [5] 0.006 | [6] -0.09 | [7] 0.03 | [8] 0.013 | IRAK-1-4 Inhibitor I 0.049

ISY1 isoform 1 (UniProt Q9ULR0)
inactive: erlotinib 0.022 | [1] 0.07 | [2] 0.02 | [3] 0.06 | [4] 0.018 | [5] 0.004 | [6] -0.004 | [7] 0.031 | [8] 0.068 | IRAK-1-4 Inhibitor I 0.014

ITCH (UniProt Q96J02)
inactive: erlotinib -0.037 | [1] -0.001 | [2] 0.014 | [3] 0.077 | [4] -0.031 | [5] -0.032 | [6] -0.038 | [7] 0.005 | [8] -0.039 | IRAK-1-4 Inhibitor I 0.018

IPO13 (UniProt O94829)
inactive: erlotinib 0.016 | [1] 0.117 | [2] -0.023 | [3] -0.011 | [4] 0.034 | [5] -0.014 | [6] -0.005 | [7] -0.02 | [8] 0.034 | IRAK-1-4 Inhibitor I 0.056

KBTBD2 (UniProt Q8IY47)
inactive: erlotinib -0.002 | [1] 0.019 | [2] 0.056 | [3] 0 | [4] 0.011 | [5] 0.016 | [6] -0.079 | [7] -0.023 | [8] 0.052 | IRAK-1-4 Inhibitor I 0.097

KARS1 (UniProt Q15046)
inactive: erlotinib -0.015 | [1] 0.002 | [2] -0.04 | [3] -0.016 | [4] -0.005 | [5] 0.004 | [6] -0.021 | [7] -0.006 | [8] -0.021 | IRAK-1-4 Inhibitor I -0.017

KDM2A (UniProt Q9Y2K7)
inactive: erlotinib -0.141 | [1] -0.055 | [2] -0.062 | [3] 0.047 | [4] 0.067 | [5] 0.014 | [6] 0.003 | [7] 0.01 | [8] -0.072 | IRAK-1-4 Inhibitor I -0.071

ITPKA (UniProt P23677)
inactive: erlotinib 0.021 | [1] -0.042 | [2] 0.041 | [3] 0.043 | [4] 0.006 | [5] 0.046 | [6] 0.006 | [7] -0.07 | [8] 0.011 | IRAK-1-4 Inhibitor I -0.013

KCT2 (UniProt Q8NC54)
inactive: erlotinib -0.05 | [1] 0.098 | [2] 0.041 | [3] 0.017 | [4] 0.055 | [5] 0 | [6] -0.026 | [7] 0.021 | [8] 0.01 | IRAK-1-4 Inhibitor I 0.031

IRAK1 (UniProt P51617)
inactive: erlotinib 0.038 | [1] -0.054 | [2] -0.108 | [3] -0.015 | [4] 0.028 | [5] 0.039 | [6] 0.117 | [7] 0.023 | [8] -0.096 | IRAK-1-4 Inhibitor I 0.023

JPT1 (UniProt Q9UK76)
inactive: erlotinib 0 | [1] -0.01 | [2] 0.03 | [3] -0.001 | [4] -0.018 | [5] 0.004 | [6] 0.003 | [7] 0.008 | [8] 0.034 | IRAK-1-4 Inhibitor I 0.011

KCTD9 (UniProt Q7L273)
inactive: erlotinib 0.114 | [1] -0.123 | [2] -0.141 | [3] -0.037 | [4] 0.013 | [5] 0.062 | [6] 0.063 | [7] 0.058 | [8] 0.02 | IRAK-1-4 Inhibitor I -0.109

IPO11 isoform 2 (UniProt Q9UI26)
inactive: erlotinib 0.021 | [1] -0.01 | [2] 0.035 | [3] 0.025 | [4] 0 | [5] -0.029 | [6] -0.041 | [7] -0.007 | [8] 0.02 | IRAK-1-4 Inhibitor I 0.008

INTS5 (UniProt Q6P9B9)
inactive: erlotinib 0.002 | [1] -0.061 | [2] -0.082 | [3] -0.04 | [4] 0.068 | [5] -0.072 | [6] -0.098 | [7] -0.001 | [8] 0.247 | IRAK-1-4 Inhibitor I -0.015

IP6K1 (UniProt Q92551)
inactive: erlotinib -0.036 | [1] -0.076 | [2] -0.016 | [3] 0.079 | [4] -0.102 | [5] 0.033 | [6] -0.06 | [7] 0.015 | [8] 0.076 | IRAK-1-4 Inhibitor I 0.015

KDM1B (UniProt Q8NB78)
inactive: erlotinib 0.066 | [1] 0.086 | [2] 0.073 | [3] -0.033 | [4] -0.064 | [5] -0.01 | [6] -0.125 | [7] -0.03 | [8] 0.113 | IRAK-1-4 Inhibitor I 0.005

JMJD4 (UniProt Q9H9V9)
inactive: erlotinib 0.089 | [1] -0.023 | [2] -0.12 | [3] -0.072 | [4] -0.101 | [5] 0.007 | [6] -0.077 | [7] 0.044 | [8] 0.031 | IRAK-1-4 Inhibitor I 0.076

KDELR1 (UniProt P24390)
inactive: erlotinib -0.04 | [1] -0.244 | [2] 0.046 | [3] 0.065 | [4] -0.097 | [5] -0.074 | [6] -0.181 | [7] -0.03 | [8] 0.054 | IRAK-1-4 Inhibitor I -0.067

IRF2BP1 (UniProt Q8IU81)
inactive: erlotinib -0.024 | [1] -0.114 | [2] 0.022 | [3] -0.016 | [4] 0.021 | [5] -0.039 | [6] -0.021 | [7] -0.057 | [8] 0.006 | IRAK-1-4 Inhibitor I -0.018

IST1 (UniProt P53990)
inactive: erlotinib -0.004 | [1] 0.044 | [2] -0.004 | [3] -0.007 | [4] -0.001 | [5] -0.003 | [6] -0.004 | [7] 0.003 | [8] 0.002 | IRAK-1-4 Inhibitor I -0.009

IPO9 (UniProt Q96P70)
inactive: erlotinib -0.008 | [1] -0.006 | [2] 0.017 | [3] 0.005 | [4] 0.014 | [5] -0.005 | [6] 0.006 | [7] 0.007 | [8] 0.011 | IRAK-1-4 Inhibitor I 0.017

KAT6B (UniProt Q8WYB5)
inactive: erlotinib 0.023 | [1] 0.046 | [2] -0.101 | [3] -0.034 | [4] -0.072 | [5] 0.062 | [6] 0 | [7] -0.06 | [8] -0.003 | IRAK-1-4 Inhibitor I -0.168

ITPA (UniProt Q9BY32)
inactive: erlotinib 0.004 | [1] 0.021 | [2] 0.024 | [3] -0.014 | [4] 0.032 | [5] 0.02 | [6] -0.001 | [7] 0.059 | [8] 0.002 | IRAK-1-4 Inhibitor I 0.002

JUND (UniProt P17535)
inactive: erlotinib -0.017 | [1] -0.083 | [2] -0.012 | [3] 0 | [4] -0.008 | [5] -0.053 | [6] -0.04 | [7] 0.007 | [8] 0.012 | IRAK-1-4 Inhibitor I 0.024

ITM2A (UniProt O43736)
inactive: erlotinib -0.017 | [1] -0.002 | [2] -0.022 | [3] 0.078 | [4] 0.058 | [5] -0.013 | [6] 0.001 | [7] -0.036 | [8] 0.031 | IRAK-1-4 Inhibitor I -0.001

ISYNA1 (UniProt Q9NPH2)
inactive: erlotinib -0.034 | [1] 0.014 | [2] -0.018 | [3] 0.01 | [4] 0.029 | [5] -0.037 | [6] 0.025 | [7] 0.042 | [8] 0.011 | IRAK-1-4 Inhibitor I 0.013
